In paper PMC6104973:
These are yes or no findings as the source states them, for the method shown.

Protein sequences, listed by entry. Tags and fused reporters are not part of them. Lines headed by an entry give the natural chain unless they say otherwise; changes in a name come on top. Chains listed by the source or under a name are the forms on record and can include a tag or linker.
ALX180 (P78324, form named): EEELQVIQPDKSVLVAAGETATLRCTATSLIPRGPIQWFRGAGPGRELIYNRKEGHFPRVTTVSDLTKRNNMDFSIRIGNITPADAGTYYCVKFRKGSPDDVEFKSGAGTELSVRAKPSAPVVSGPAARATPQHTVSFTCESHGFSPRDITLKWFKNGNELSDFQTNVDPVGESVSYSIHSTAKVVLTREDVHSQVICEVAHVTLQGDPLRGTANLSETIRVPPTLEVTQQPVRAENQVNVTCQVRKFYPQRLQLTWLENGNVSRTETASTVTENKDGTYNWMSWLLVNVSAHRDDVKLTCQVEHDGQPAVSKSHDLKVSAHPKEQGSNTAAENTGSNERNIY

Molecular target: T1, mouse CD47 on cells (mouse (endogenous in mouse tumor cell lines)) (UniProt Q61735)
T1 sequence: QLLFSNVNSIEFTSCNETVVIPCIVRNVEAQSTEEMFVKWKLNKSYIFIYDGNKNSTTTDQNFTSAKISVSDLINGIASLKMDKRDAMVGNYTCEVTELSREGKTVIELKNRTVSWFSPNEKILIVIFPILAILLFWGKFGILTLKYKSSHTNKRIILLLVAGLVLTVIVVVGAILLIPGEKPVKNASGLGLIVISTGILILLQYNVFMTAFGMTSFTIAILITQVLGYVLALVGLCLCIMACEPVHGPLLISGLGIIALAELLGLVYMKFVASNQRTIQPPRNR
Assay: flow cytometry on cells; Alexa Fluor 647-labeled protein at 20 nM on human and mouse tumor cell lines, 15 minutes on ice, with human Fc block and human AB serum; only the binder purified

binding: no binding (tested: 20 nM)
Substance: ALX180 (from UniProt P78324 31-373) (Fc fusion)
